Measured values from patent US20170240645A1.
These are yes or no findings as the source states them, for the method shown. Some results given as binding are weak or reduced against the parent protein; the word gives no strength. Where a sequence is shown, tags or fusion partners need not be part of it.

Molecular target: T1, rat PMEL17 with an N-terminal gD tag (rat)
T1 sequence: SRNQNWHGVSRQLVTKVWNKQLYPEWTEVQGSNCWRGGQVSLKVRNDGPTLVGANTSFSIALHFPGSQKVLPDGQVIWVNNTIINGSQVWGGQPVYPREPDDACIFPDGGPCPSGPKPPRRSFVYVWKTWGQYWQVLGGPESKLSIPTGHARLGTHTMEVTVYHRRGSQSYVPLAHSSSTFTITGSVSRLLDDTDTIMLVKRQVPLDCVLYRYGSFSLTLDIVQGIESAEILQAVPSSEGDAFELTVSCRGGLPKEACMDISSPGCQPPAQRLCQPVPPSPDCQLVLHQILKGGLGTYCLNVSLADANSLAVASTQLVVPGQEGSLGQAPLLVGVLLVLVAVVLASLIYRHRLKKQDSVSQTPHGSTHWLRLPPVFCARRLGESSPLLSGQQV
Assay: FACS, 293S cells stably transfected with gD tagged PMEL17, 10 µg/ml 17A9

B1: 17A9 (antibody, V domains shown)
VH: EVQLQQSGPELVKPGASMKISCKSSGYSFTRYTMNWVKQSHGKNLEWIGVINPYNGGTVYNQKFKGKATLTVDKSSSTAYMELLSLTSEDSAVYYCARTDYDGYAMDYWGQGTSVTVSS
VL: DVQITQSPSYLAASPGETITINCRATKSISKYLAWYQEQPGKTNNLLIYSGSTLQSGIPSRFSGSGSGTDFTLTISSLEPEDFAMYYCQQHNEYPYTFGSGTKLEIK
In the case of B1, the binding is reported as “binds”.
